Patent US20200291126A1 (EUTILEX, published 2020)
No constants are given. Whether binding was seen depends on the method and setting. Some binding calls cover weakened binding; strength is not graded here.

Columns and labels:
[1] = molecular target: T1, V-Set And Immunoglobulin Domain Containing 4 (VSIG4) (human) (UniProt Q9Y279); test: SPR
T1 sequence (looked up): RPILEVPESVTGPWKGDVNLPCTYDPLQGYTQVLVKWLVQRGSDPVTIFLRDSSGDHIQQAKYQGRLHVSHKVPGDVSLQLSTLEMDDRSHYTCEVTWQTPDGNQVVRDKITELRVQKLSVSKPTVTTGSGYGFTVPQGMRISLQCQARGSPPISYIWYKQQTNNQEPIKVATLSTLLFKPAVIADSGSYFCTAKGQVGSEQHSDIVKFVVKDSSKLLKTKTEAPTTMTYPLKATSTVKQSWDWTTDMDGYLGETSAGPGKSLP

[2] = molecular target: T1, V-Set And Immunoglobulin Domain Containing 4 (VSIG4) (human); test: SPR (surface plasmon resonance); the sheet and the text give neither the analyte concentrations nor which partner is immobilised; the time axis has no unit

B1: EU103.2 antibody (antibody, V domains shown)
VH: QVQLQESGPGLVKPSQTLSLTCSFSGISLTTSGMGVGWIRQPPGKGLEWLADIFWDDNKYYNPSLKSRVTISVDTSKNQFSLKLSSVTAADTAVYYCVRVYYKNDGYFDVWGQGTLVTVSS
VL: EIVMTQSPATLSVSPGERATLSCRASKSVTTSGYSFMHWYQQKPGQAPRLLIYLASNLEPGIPARFSGSGSGTEFTLTISSLQSEDFAVYYCQHSRELPYTFGQGTKLEIK
notes: also called humanized anti-VSIG4 antibody generated from mouse anti-VSIG4 antibody mu6H8
[1]
  binding: binds
[2]
  binding: binds
